Some compounds share one wording; it may come from a single statement.
Assays:
[1] = Bar code pattern reading (PCS) of printed article before and after xenon light irradiation (light resistance); format: physicochemical
Procedure: By mixing the components of the composition shown below, the infrared absorbing printing ink (1) was prepared.
By using each of the infrared absorbing printing ink obtained above, a bar code pattern was formed on a regular paper (trade name: MP-120, manufactured by PLUS Corporation), i.e., a base paper, by Gravure printing.
Subsequently, on the formed bar code pattern, another bar code pattern was additionally formed by using the infrared absorbing ink (2) having the composition shown below.
Next, on top of the bar code patterns formed by disposing two layers, three kinds of process inks having infrared transmittance (FDOL Yellow, FDOL Magenta, and FDOL Cyan, manufactured by TOYO INK MFG. CO., LTD. (trade names, manufactured by TOYO INK MFG. CO., LTD.) were further applied by Gravure printing to form a colored layer made of three visible colors (cyan, magenta, and yellow). As a result, a printed article having a bar code pattern disposed inside the matter was produced.
Two kinds of semiconductor laser beam having wavelengths of 830 nm and 905 nm respectively were irradiated onto the thus obtained printed article, and the detection was made by using a filter which cuts off the emission light having wavelength of 950 nm or less. As a result, it was possible to detect the pattern formed by the infrared absorbing ink.
Subsequently, xenon light of 70,000 lux was irradiated continuously for 200 hours onto the printed article by using a xenon lamp. After that, the reading state of the bar code pattern after the irradiation was evaluated. For the evaluation, PCS (print•contrast•signal) of 0.6 or more was evaluated as “good,” and PCS (print•contrast•signal) of less than 0.6 was evaluated as “bad.” The evaluation results are shown in Table 2 below.
The printed article was prepared in the same manner as Example 1 except that the solvent (a mixture solvent of toluene and methyl isobutyl ketone) in the composition of the infrared absorbing ink (1) and (2) is replaced with n-octane (SP value: 7.6), butyl acetate (SP value: 8.5), or isopropyl alcohol (IPA; SP values: 11.5), and evaluated.
The comparative printed article was prepared in the same manner as Example 1 except that the solvent (a mixture solvent of toluene and methyl isobutyl ketone) in the composition of the infrared absorbing ink (1) and (2) is replaced with n-pentane (SP value: 7.0; Example 2) or ethanol (SP value: 12.7; Example 3), and evaluated.

[2] = Ultraviolet curable ink of Example 4: reflected light of mark for copy protection, before and after xenon irradiation; format: physicochemical; details: reflection intensity of mark area / area outside mark, as ratio to comparative infrared absorbing agent A set to 1
Procedure: By mixing the components of the composition shown below, an ultraviolet curable ink having an infrared absorbing property was prepared.
By using the ultraviolet curable ink thus obtained, a mark for copy protection was printed on the same base paper as that used in Example 1 by Gravure printing. On top of the printed mark for copy protection, each of the three kinds of a process ink (FDOL Yellow, FDOL Magenta, and FDOL Cyan, trade names, manufactured by TOYO INK MFG. CO., LTD.) was applied as a layer by Gravure printing, or a mixture ink in which the three kinds of a process ink are mixed was applied as a layer by Gravure printing to hide the mark for copy protection, thus obtaining a printed article.
The mark for copy protection that is hidden by the process ink was irradiated with infrared light using a linear sensor (trade name: TCD1500C, manufactured by Toshiba) in which the infrared cut-off filter of linear sensor was replaced with an infrared transmitting filter (trade name: IR83, manufactured by Hoya) as a detection device, and the reflected light was detected simultaneously.
The reflection light intensity in the area of the mark for copy protection at the time of detecting the mark was divided by the reflection light intensity of the area outside the mark for copy protection. The resulting value of the comparative infrared absorbing agent A was set to 1, and a ratio of the resulting value with respect to the resulting value of the comparative infrared absorbing agent A was calculated for each compound.
In addition, the obtained printed article was irradiated continuously with xenon light of 70,000 lux for 72 hours by using a Xenon lamp. After the irradiation, similar to above, the reflection light intensity of the area of the mark for copy protection was divided by the reflection light intensity of the area outside the mark for copy protection, and the variation ratio [%] compared to the value before the irradiation was calculated to use it as an index for evaluation of light resistance.

[3] = Example 2, ink solvent n-pentane (SP value: 7.0)
[4] = Example 3, ink solvent ethanol (SP value: 12.7)
[5] = ink solvent IPA (SP value: 11.5)
[6] = ink solvent butyl acetate (SP value: 8.5)
[7] = ink solvent n-octane (SP value: 7.6)
[8] = ink solvent toluene/methyl isobutyl ketone = 70/30

Compound | Reading before irradiation [1, 3] | Reading before irradiation [1, 4] | Reading before irradiation [1, 5] | Reading before irradiation [1, 6] | Reading before irradiation [1, 7] | Reading before irradiation [1, 8] | Strength of reflected light before irradiation [2]
CCCCCCCCOc1c2c(c(OCCCCCCCC)c3ccccc13)C1=Nc3c4c(OCCCCCCCC)c5ccccc5c(OCCCCCCCC)c4c4[n]3[Zn][n]3c(c5c(OCCCCCCCC)c6ccccc6c(OCCCCCCCC)c5c3=NC3=NC(=N4)c4c3c(OCCCCCCCC)c3ccccc3c4OCCCCCCCC)=NC2=N1 [Compound 27] | Good (PCS (print•contrast•signal) of 0.6 or more was evaluated as “good,”) | Good (PCS (print•contrast•signal) of 0.6 or more was evaluated as “good,”) | Good (PCS (print•contrast•signal) of 0.6 or more was evaluated as “good,”) | Good (PCS (print•contrast•signal) of 0.6 or more was evaluated as “good,”) | Good (PCS (print•contrast•signal) of 0.6 or more was evaluated as “good,”) | Good (PCS (print•contrast•signal) of 0.6 or more was evaluated as “good,”) | 0.3
CCCCCCCCOc1c2c(c(OCCCCCCCC)c3ccccc13)C1=Nc3c4c(OCCCCCCCC)c5ccccc5c(OCCCCCCCC)c4c4[n]3[Cu][n]3c(c5c(OCCCCCCCC)c6ccccc6c(OCCCCCCCC)c5c3=NC3=NC(=N4)c4c3c(OCCCCCCCC)c3ccccc3c4OCCCCCCCC)=NC2=N1 [Compound 25] | Good (PCS (print•contrast•signal) of 0.6 or more was evaluated as “good,”) | Good (PCS (print•contrast•signal) of 0.6 or more was evaluated as “good,”) | Good (PCS (print•contrast•signal) of 0.6 or more was evaluated as “good,”) | Good (PCS (print•contrast•signal) of 0.6 or more was evaluated as “good,”) | Good (PCS (print•contrast•signal) of 0.6 or more was evaluated as “good,”) | Good (PCS (print•contrast•signal) of 0.6 or more was evaluated as “good,”) | 0.2
CCOc1c2c(c(OCC)c3ccccc13)-c1nc-2nc2[n-]c(nc3nc(nc4[n-]c(n1)c1c(OCC)c5ccccc5c(OCC)c41)-c1c-3c(OCC)c3ccccc3c1OCC)c1c(OCC)c3ccccc3c(OCC)c21.[Cu+2] [Compound 23] | Good (PCS (print•contrast•signal) of 0.6 or more was evaluated as “good,”) | Good (PCS (print•contrast•signal) of 0.6 or more was evaluated as “good,”) | Good (PCS (print•contrast•signal) of 0.6 or more was evaluated as “good,”) | Good (PCS (print•contrast•signal) of 0.6 or more was evaluated as “good,”) | Good (PCS (print•contrast•signal) of 0.6 or more was evaluated as “good,”) | Good (PCS (print•contrast•signal) of 0.6 or more was evaluated as “good,”) | 0.5
Nc1ccccc1Sc1c2c(c(Sc3ccccc3N)c3c1C1=Nc4c5c(Sc6ccccc6N)c6c(c(Sc7ccccc7N)c5c5[n]4[V](=[O])[n]4c(c7c(Sc8ccccc8N)c8c(c(Sc9ccccc9N)c7c4=NC4=NC(=N5)c5c(Sc7ccccc7N)c7c(c(Sc9ccccc9N)c54)NC4C=CC=CC4S7)SC4C=CC=CC4N8)=NC3=N1)NC1C=CC=CC1S6)SC1C=CC=CC1N2 (centres unmarked) [Compound 71] | Good (PCS (print•contrast•signal) of 0.6 or more was evaluated as “good,”) | Good (PCS (print•contrast•signal) of 0.6 or more was evaluated as “good,”) | Good (PCS (print•contrast•signal) of 0.6 or more was evaluated as “good,”) | Good (PCS (print•contrast•signal) of 0.6 or more was evaluated as “good,”) | Good (PCS (print•contrast•signal) of 0.6 or more was evaluated as “good,”) | Good (PCS (print•contrast•signal) of 0.6 or more was evaluated as “good,”) | 0.3
CCCCCCCCN1/C(=C/C=C/C=C/C=C/C2=[N+](CCCCCCCC)c3ccc4ccccc4c3C2(C)C)C(C)(C)c2c1ccc1ccccc21.Cc1ccc(S(=O)(=O)[O-])cc1 [reference compound] |  |  |  |  |  | Good (PCS (print•contrast•signal) of 0.6 or more was evaluated as “good,”) | 0.9
Nc1ccccc1Sc1c2c(c(Sc3ccccc3N)c3c1C1=Nc4c5c(Sc6ccccc6N)c6c(c(Sc7ccccc7N)c5c5[n]4[Cu][n]4c(c7c(Sc8ccccc8N)c8c(c(Sc9ccccc9N)c7c4=NC4=NC(=N5)c5c(Sc7ccccc7N)c7c(c(Sc9ccccc9N)c54)NC4C=CC=CC4S7)SC4C=CC=CC4N8)=NC3=N1)NC1C=CC=CC1S6)SC1C=CC=CC1N2 (centres unmarked) [Compound 69] | Good (PCS (print•contrast•signal) of 0.6 or more was evaluated as “good,”) | Good (PCS (print•contrast•signal) of 0.6 or more was evaluated as “good,”) | Good (PCS (print•contrast•signal) of 0.6 or more was evaluated as “good,”) | Good (PCS (print•contrast•signal) of 0.6 or more was evaluated as “good,”) | Good (PCS (print•contrast•signal) of 0.6 or more was evaluated as “good,”) | Good (PCS (print•contrast•signal) of 0.6 or more was evaluated as “good,”) | 0.4
CCCCOc1c2c(c(OCCCC)c3ccccc13)C1=Nc3c4c(OCCCC)c5ccccc5c(OCCCC)c4c4[n]3[Cu][n]3c(c5c(OCCCC)c6ccccc6c(OCCCC)c5c3=NC3=NC(=N4)c4c3c(OCCCC)c3ccccc3c4OCCCC)=NC2=N1 [Compound 24] | Good (PCS (print•contrast•signal) of 0.6 or more was evaluated as “good,”) | Good (PCS (print•contrast•signal) of 0.6 or more was evaluated as “good,”) | Good (PCS (print•contrast•signal) of 0.6 or more was evaluated as “good,”) | Good (PCS (print•contrast•signal) of 0.6 or more was evaluated as “good,”) | Good (PCS (print•contrast•signal) of 0.6 or more was evaluated as “good,”) | Good (PCS (print•contrast•signal) of 0.6 or more was evaluated as “good,”) | 0.5
